Drawing on the supplement of paper PMC8616043, this text covers Z-score for 20 compounds.

Counter-ions that a name gives are not always drawn. The list shows a part of the results. This data set is noisy: repeats of one test often differ as much as different tests do.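 PR50, a 50-repeat proline–arginine dipeptide protein from C9ORF72 (ALS/FTD), was expressed by transfection in U-2 OS human cells stably carrying a GFP sensor with import and classical export signals. Per-well nuclear-minus-cytoplasm GFP, normalized between in-plate DMSO (low) and PR-only (high), was scored versus other test wells; compounds well below zero were hits reversing PR.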

This assay relates to U-2 OS NCT-C biosensor cells expressing PR50. The experiment in a line: Z-score of normalised NCT-C biosensor translocation index in PR50-expressing cells; higher = more nuclear biosensor (more disrupted nuclear export). The conditions noted are these: 3 µM; 24 h.
`CC(C)Nc1cccnc1N1CCN(C(=O)c2cc3cc(NS(C)(=O)=O)ccc3[nH]2)CC1` [Delavirdine Mesylate]: the Z-score was inactive: 0.895.

Take `Cc1onc(-c2ccccc2Cl)c1C(=O)N[C@@H]1C(=O)N2[C@@H]1SC(C)(C)[C@@H]2C(=O)O` [Cloxacillin·Na]: the Z-score is inactive: -0.0263.

For `COc1ccc(Cn2ccc3ccc(C(=O)NO)cc32)cc1`, the Z-score is inactive: -1.5.

`C#Cc1cccc(Nc2ncnc3cc(OCCOC)c(OCCOC)cc23)c1` [Erlotinib]: the Z-score was inactive: -0.299.

For the compound `CN[C@H](CC(=O)O)C(=O)O` [N-Methyl-D- aspartic acid], the Z-score was inactive: 0.141.

Take `O=C1C[C@@H](c2ccc(O)c(O)c2)Oc2cc(O)cc(O)c21` [Eriodictyol]: the Z-score is inactive: -0.58.

For `CN[C@@H]1[C@H](O)[C@H](NC)[C@H]2O[C@@]3(O)C(=O)C[C@@H](C)O[C@H]3O[C@@H]2[C@H]1O` [Spectinomycin], the Z-score was inactive: -0.624.

Turning to `CN[C@@H]1[C@H](O)[C@H](NC)[C@H]2O[C@@]3(O)C(=O)C[C@@H](C)O[C@H]3O[C@@H]2[C@H]1O` [Spectinomycin·2HCl Pentahydrate], the Z-score is inactive: 0.128.

For `O=C1NC(=O)C(Cc2ccc3cc(OCc4ccccc4F)ccc3c2)S1` (stereo not given), the Z-score is inactive: 0.35.

For the compound `NC(N)=NC(N)=Nc1cccc(Cl)c1` [1-(m-Chlorophenyl)-biguanide hydrochloride], the Z-score is inactive: -1.17.

Take `CC(C(=O)O)c1ccc(-c2ccccc2)c(F)c1` (stereo not given) [Flurbiprofen]: the Z-score was inactive: 0.71.

For `NC(=O)c1cn(Cc2c(F)cccc2F)nn1` [Rufinamide], the Z-score is inactive: 0.0205.

On to `Cc1ccccc1C(=O)Nc1ccc(C(=O)N2CCCC(O)c3cc(Cl)ccc32)c(C)c1` (stereo not given) [Tolvaptan], for which the Z-score was inactive: -0.62.

Consider `CC[N+](CC)(CC)CCOc1ccc(/C=C/c2ccccc2)cc1`, for which the Z-score is inactive: -0.683.

Turning to `CC(=O)O[C@H]1CC[C@@]2(C)C(=CC[C@@H]3[C@@H]2CC[C@]2(C)C(c4cccnc4)=CC[C@@H]32)C1` [Abiraterone acetate], the Z-score is inactive: -0.959.

In the case of `Nc1nc2[nH]cnc2c(=S)[nH]1` [Thioguanine (6-Thioguanine)], the Z-score was inactive: -0.149.

As to `O=C(Nc1cccc(C(F)(F)F)c1)Nc1cc(S(=O)(=O)NC2CC2)ccc1-c1ccsc1`, the Z-score is inactive: -1.13.

Consider `Cc1cccc(C)c1NC(=O)C(C)N` (stereo not given) [Tocainide hydrochloride], for which the Z-score is inactive: -0.199.

`CC(=O)Nc1ccc(C(=O)Nc2ccc(F)cc2N)cc1`: the Z-score is inactive: -0.885.

Turning to `Oc1c(Cl)cc(Cl)c(Cl)c1Cc1c(O)c(Cl)cc(Cl)c1Cl` [Hexachlorophene], the Z-score is inactive: 0.894.
